In the supplement of paper PMC8728848:
Some of the results follow.

How the values were obtained:
Test in all cases: glycan array binding signal (z-score within array); higher = stronger binding
Details in all cases: glycan notation: IUPAC condensed, linker removed
[1] = target: Man(a1-2)Man(a1-3)[Man(a1-2)Man(a1-6)]Man(a1-6)[Man(a1-2)Man(a1-2)Man(a1-3)]Man
Outline: (§1)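 Arrays were curated from the Consortium for Functional Glycomics database, 3228 in total, and kept only where the protein sequence was available. Binding is expressed as a within-array Z-score. This score was averaged across arrays of the same protein sequence at different concentrations or buffers and across linkers, and negative values can be read as non-binding.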

[2] = target: Man(a1-2)Man(a1-3)[Man(a1-2)Man(a1-6)]Man(a1-6)[Man(a1-2)Man(a1-2)Man(a1-3)]Man(b1-4)GlcNAc(b1-4)GlcNAc
Outline: as §1

[3] = target: Man(a1-2)Man(a1-3)[Man(a1-6)]Man(a1-6)[Man(a1-2)Man(a1-3)]Man(b1-4)GlcNAc(b1-4)GlcNAc
Outline: as §1

[4] = target: Man(a1-2)Man(a1-6)[Man(a1-3)]Man(a1-6)[Man(a1-2)Man(a1-2)Man(a1-3)]Man
Outline: as §1

[5] = target: Man(a1-2)Man(a1-6)[Man(a1-3)]Man(a1-6)[Man(a1-2)Man(a1-2)Man(a1-3)]Man(b1-4)GlcNAc(b1-4)GlcNAc
Outline: as §1

Man(a1-3)[Man(a1-6)]Man = target: Man(a1-3)[Man(a1-6)]Man
Outline: as §1

[6] = target: Man(a1-3)[Man(a1-6)]Man(a1-6)[Man(a1-2)Man(a1-3)]Man(b1-4)GlcNAc(b1-4)GlcNAc
Outline: as §1

[7] = target: Man(a1-3)[Man(a1-6)]Man(a1-6)[Man(a1-3)]Man
Outline: as §1

[8] = target: Man(a1-3)[Man(a1-6)]Man(a1-6)[Man(a1-3)]Man(b1-4)GlcNAc(b1-4)GlcNAc
Outline: as §1

[9] = target: Man(a1-3)[Man(a1-6)]Man(b1-4)GlcNAc(b1-4)GlcNAc
Outline: as §1

[10] = target: Man(a1-3)[Man(a1-6)]Man(b1-4)GlcNAc(b1-4)[Fuc(a1-6)]GlcNAc
Outline: as §1

Man(a1-6)Man = target: Man(a1-6)Man
Outline: as §1

Man(b1-4)GlcNAc = target: Man(b1-4)GlcNAc
Outline: as §1

MurNAc(b1-4)GlcNAc = target: MurNAc(b1-4)GlcNAc
Outline: as §1

Neu5Ac(a2-3)Gal = target: Neu5Ac(a2-3)Gal
Outline: as §1

[11] = target: Neu5Ac(a2-3)Gal(b1-3)GalNAc
Outline: as §1

[12] = target: Neu5Ac(a2-3)Gal(b1-3)GalNAc(b1-3)Gal(a1-4)Gal(b1-4)Glc
Outline: as §1

[13] = target: Neu5Ac(a2-3)Gal(b1-3)GalNAc(b1-4)[Neu5Ac(a2-3)]Gal(b1-4)Glc
Outline: as §1

[14] = target: Neu5Ac(a2-3)Gal(b1-3)GalNAc(b1-4)[Neu5Ac(a2-8)Neu5Ac(a2-3)]Gal(b1-4)Glc
Outline: as §1

[15] = target: Neu5Ac(a2-3)Gal(b1-3)GalNAc6S
Outline: as §1

[16] = target: Neu5Ac(a2-3)Gal(b1-3)GlcNAc
Outline: as §1

[17] = target: Neu5Ac(a2-3)Gal(b1-3)GlcNAc(b1-2)Man
Outline: as §1

[18] = target: Neu5Ac(a2-3)Gal(b1-3)GlcNAc(b1-2)Man(a1-3)[GlcNAc(b1-4)][Neu5Ac(a2-3)Gal(b1-3)GlcNAc(b1-2)Man(a1-6)]Man(b1-4)GlcNAc(b1-4)GlcNAc
Outline: as §1

[19] = target: Neu5Ac(a2-3)Gal(b1-3)GlcNAc(b1-2)Man(a1-3)[Neu5Ac(a2-3)Gal(b1-3)GlcNAc(b1-2)Man(a1-6)]Man(b1-4)GlcNAc(b1-4)GlcNAc
Outline: as §1

[20] = target: Neu5Ac(a2-3)Gal(b1-3)GlcNAc(b1-3)Gal(b1-3)GlcNAc
Outline: as §1

[21] = target: Neu5Ac(a2-3)Gal(b1-3)GlcNAc(b1-3)Gal(b1-4)GlcNAc
Outline: as §1

[22] = target: Neu5Ac(a2-3)Gal(b1-3)GlcNAc(b1-3)GalNAc
Outline: as §1

[23] = target: Neu5Ac(a2-3)Gal(b1-3)GlcNAc(b1-4)Gal(b1-4)Glc
Outline: as §1

[24] = target: Neu5Ac(a2-3)Gal(b1-3)GlcNAc(b1-6)GalNAc
Outline: as §1

[25] = target: Neu5Ac(a2-3)Gal(b1-3)GlcNAc6S
Outline: as §1

[26] = target: Neu5Ac(a2-3)Gal(b1-3)[Fuc(a1-4)]GlcNAc
Outline: as §1

[27] = target: Neu5Ac(a2-3)Gal(b1-3)[Fuc(a1-4)]GlcNAc(b1-3)Gal(b1-3)[Fuc(a1-4)]GlcNAc
Outline: as §1

[28] = target: Neu5Ac(a2-3)Gal(b1-3)[Fuc(a1-4)]GlcNAc(b1-3)Gal(b1-4)[Fuc(a1-3)]GlcNAc
Outline: as §1

[29] = target: Neu5Ac(a2-3)Gal(b1-3)[GlcNAc(b1-6)]GalNAc
Outline: as §1

[30] = target: Neu5Ac(a2-3)Gal(b1-3)[Neu5Ac(a2-6)]GalNAc
Outline: as §1

[31] = target: Neu5Ac(a2-3)Gal(b1-3)[Neu5Ac(a2-6)]GlcNAc(b1-3)[Fuc(a1-3)[Gal(b1-4)]GlcNAc(b1-6)]Gal(b1-4)Glc
Outline: as §1

[32] = target: Neu5Ac(a2-3)Gal(b1-3)]Neu5Ac(a2-3)Gal(b1-4)]GlcNAc
Outline: as §1

B1: Tp0751, 83732 (protein)
chain: MSYYHHHHHHLESTSLYKKAGFQHGHVPPRRIPPHDTFGALPTAALPSNARDTAAHPSDTADNTSGSSTTTDPRSHGNAPPAPVGGAAQTHTQPPVQTAMRIALWNRATHGEQGALQHLLAGLWIQTEISPNSGDIHPLLFFDREHAEITFSRASVQEIFLVDSAHTHRKTVSFLTRNTAISSIRRRLEVTFESHEVIHVRAVEDVARLKIGSTSMWDGQYTRYHAGPASAPSP
[1]
  glycan array binding signal (z-score): -0.436
[2]
  glycan array binding signal (z-score): -0.176
[3]
  glycan array binding signal (z-score): -0.389
[4]
  glycan array binding signal (z-score): -0.637
[5]
  glycan array binding signal (z-score): 0.116
Man(a1-3)[Man(a1-6)]Man
  glycan array binding signal (z-score): -0.744
[6]
  glycan array binding signal (z-score): 0.61
[7]
  glycan array binding signal (z-score): -0.699
[8]
  glycan array binding signal (z-score): -0.236
[9]
  glycan array binding signal (z-score): -0.399
[10]
  glycan array binding signal (z-score): -0.469
Man(a1-6)Man
  glycan array binding signal (z-score): -0.392
Man(b1-4)GlcNAc
  glycan array binding signal (z-score): -0.599
MurNAc(b1-4)GlcNAc
  glycan array binding signal (z-score): -0.603
Neu5Ac(a2-3)Gal
  glycan array binding signal (z-score): -0.276
[11]
  glycan array binding signal (z-score): -0.647
[12]
  glycan array binding signal (z-score): 0.106
[13]
  glycan array binding signal (z-score): 0.006
[14]
  glycan array binding signal (z-score): 0.616
[15]
  glycan array binding signal (z-score): 0.237
[16]
  glycan array binding signal (z-score): -0.625
[17]
  glycan array binding signal (z-score): -0.108
[18]
  glycan array binding signal (z-score): -0.487
[19]
  glycan array binding signal (z-score): 0.814
[20]
  glycan array binding signal (z-score): -0.225
[21]
  glycan array binding signal (z-score): 0.058
[22]
  glycan array binding signal (z-score): -0.826
[23]
  glycan array binding signal (z-score): -0.235
[24]
  glycan array binding signal (z-score): -0.152
[25]
  glycan array binding signal (z-score): -0.504
[26]
  glycan array binding signal (z-score): -0.061
[27]
  glycan array binding signal (z-score): 0.714
[28]
  glycan array binding signal (z-score): 0.658
[29]
  glycan array binding signal (z-score): 0.224
[30]
  glycan array binding signal (z-score): -0.607
[31]
  glycan array binding signal (z-score): 0.642
[32]
  glycan array binding signal (z-score): -0.301
